Changes are numbered by the printed parent chain. No constants are given. Whether binding was seen depends on the method and setting. Binding seen in cells or lysates may run through a third protein. A yes stands for co-enrichment or nearness to the bait. Other partners may have been found. For part of these data: No binding means not detected with the bait. For part of these data: Where a sequence is shown, tags or fusion partners need not be part of it. Values belong to the binder of their own block, whether it stands above or below them.
How the values were obtained:
Assay in all cases: affinity purification with mass spectrometry; Flag M2 resin IP from mitochondria-enriched extracts of HeLa cells expressing one C-terminally Flag-tagged mouse bait; crude eluates analysed by MudPIT; partners enriched 10 x over control IP and mitochondrial input; three biological replicates
[1] = biological target: ISCA2-Flag (mouse ISCA2 with a C-terminal Flag epitope) (mouse) (UniProt Q9DCB8)
[2] = biological target: T1, FDX2-Flag (mouse FDX2 with a C-terminal Flag epitope) (mouse) (UniProt Q9CPW2)
T1 sequence: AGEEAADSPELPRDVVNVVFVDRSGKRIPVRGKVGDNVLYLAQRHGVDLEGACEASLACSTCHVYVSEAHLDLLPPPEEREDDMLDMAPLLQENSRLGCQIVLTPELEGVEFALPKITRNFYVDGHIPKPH

Amino acid sequences for entries named in this document (tags omitted). A change or cut given only in a name is not applied to a line headed by its entry.
UniProt Q9DCB8: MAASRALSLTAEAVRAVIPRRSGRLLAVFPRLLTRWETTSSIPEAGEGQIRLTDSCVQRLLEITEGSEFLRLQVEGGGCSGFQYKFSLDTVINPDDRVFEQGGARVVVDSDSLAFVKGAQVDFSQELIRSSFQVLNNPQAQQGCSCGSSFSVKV
UniProt Q8CAK1: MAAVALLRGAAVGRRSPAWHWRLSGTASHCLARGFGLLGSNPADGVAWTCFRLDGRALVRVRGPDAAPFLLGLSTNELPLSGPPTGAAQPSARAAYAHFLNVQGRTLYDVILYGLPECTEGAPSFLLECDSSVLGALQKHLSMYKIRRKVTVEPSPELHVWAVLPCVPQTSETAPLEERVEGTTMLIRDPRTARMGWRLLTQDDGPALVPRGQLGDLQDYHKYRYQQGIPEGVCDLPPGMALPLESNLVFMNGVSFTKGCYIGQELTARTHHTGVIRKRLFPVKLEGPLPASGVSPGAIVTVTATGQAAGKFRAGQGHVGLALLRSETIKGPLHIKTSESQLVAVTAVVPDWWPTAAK

[3] = biological target: T2, GLRX5-Flag (mouse GLRX5 with a C-terminal Flag epitope) (mouse) (UniProt Q80Y14)
T2 sequence: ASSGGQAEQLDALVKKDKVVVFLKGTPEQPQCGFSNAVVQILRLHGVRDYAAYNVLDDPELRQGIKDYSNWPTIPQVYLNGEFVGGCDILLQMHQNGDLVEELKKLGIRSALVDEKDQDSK

[4] = biological target: IBA57-Flag (mouse IBA57 with a C-terminal Flag epitope) (mouse) (UniProt Q8CAK1)
[5] = biological target: T3, ISCA1-Flag (mouse ISCA1 with a C-terminal Flag epitope) (mouse) (UniProt Q9D924)
T3 sequence: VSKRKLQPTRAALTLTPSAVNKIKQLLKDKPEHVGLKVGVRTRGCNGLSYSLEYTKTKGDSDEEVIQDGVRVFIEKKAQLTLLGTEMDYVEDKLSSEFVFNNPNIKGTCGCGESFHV

binding [1]: binds
B1: GLRX5 (endogenous, HeLa) (protein, UniProt Q86SX6 32-157)
chain: AGSGAGGGGSAEQLDALVKKDKVVVFLKGTPEQPQCGFSNAVVQILRLHGVRDYAAYNVLDDPELRQGIKDYSNWPTIPQVYLNGEFVGGCDILLQMHQNGDLVEELKKLGIHSALLDEKKDQDSK

binding [2]: no binding
binding [3]: binds
binding [4]: binds
binding [5]: binds
B2: ISCA2 (endogenous, HeLa) (protein, UniProt Q86U28 9-154)
chain: LTAATQRAVTPWPRGRLLTASLGPQARREASSSSPEAGEGQIRLTDSCVQRLLEITEGSEFLRLQVEGGGCSGFQYKFSLDTVINPDDRVFEQGGARVVVDSDSLAFVKGAQVDFSQELIRSSFQVLNNPQAQQGCSCGSSFSIKL

binding [5]: no binding
binding [1]: binds
B3: IBA57 (endogenous, HeLa) (protein, UniProt Q5T440 40-356)
chain: GDPTAGAAWACFRLDGRTLLRVRGPDAAPFLLGLLTNELPLPSPAAAGAPPAARAGYAHFLNVQGRTLYDVILYGLQEHSEVSGFLLECDSSVQGALQKHLALYRIRRKVTVEPHPELRVWAVLPSSPEACGAASLQERAGAAAILIRDPRTARMGWRLLTQDEGPALVPGGRLGDLWDYHQHRYLQGVPEGVRDLPPGVALPLESNLAFMNGVSFTKGCYIGQELTARTHHMGVIRKRLFPVRFLDPLPTSGITPGATVLTASGQTVGKFRAGQGNVGLALLWSEKIKGPLHIRASEGAQVALAASVPDWWPTVSK

binding [4]: no binding
binding [1]: binds
B4: ISCA1 (endogenous, HeLa) (protein, UniProt Q9BUE6 13-129)
chain: T3 sequence with L36V, S51T, H116N, V117I

binding [4]: no binding
binding [5]: binds
binding [1]: no binding
B5: NFU1 (endogenous, HeLa) (protein, UniProt Q9UMS0 10-254)
chain: GAAAVAAGLRRRFCHMLKNPYTIKKQPLHQFVQRPLFPLPAAFYHPVRYMFIQTQDTPNPNSLKFIPGKPVLETRTMDFPTPAAAFRSPLARQLFRIEGVKSVFFGPDFITVTKENEELDWNLLKPDIYATIMDFFASGLPLVTEETPSGEAGSEEDDEVVAMIKELLDTRIRPTVQEDGGDVIYKGFEDGIVQLKLQGSCTSCPSSIITLKNGIQNMLQFYIPEVEGVEQVMDDESDEKEANSP

— PMC5437272
